Assay results: US20240254220A1, “COMBINED THERAPY USING ANTI-CD300C ANTIBODY” (CentricsBio, Inc., priority 2021, published 2024)
No constants are given. Whether binding was seen depends on the method and setting. Some entries that bind do so weakly or less than the wild type.

Protein sequences, listed by entry. Tags and fused reporters are not part of them. Lines headed by an entry give the natural chain unless they say otherwise; changes in a name come on top. Residues count along the entry.
UniProt Q08708, residues 21-183: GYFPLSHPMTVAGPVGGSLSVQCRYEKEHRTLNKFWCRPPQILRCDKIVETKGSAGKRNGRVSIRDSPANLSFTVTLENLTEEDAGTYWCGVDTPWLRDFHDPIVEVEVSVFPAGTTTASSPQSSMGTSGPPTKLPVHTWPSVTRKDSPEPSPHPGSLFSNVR

Legend:
[1] = target: CD300c antigen (11832-H08H, Sino Biological) (human) (UniProt Q08708); experiment: binding ELISA on coated CD300c antigen
[2] = target: CD300c antigen (11832-H08H, Sino Biological) (human) (UniProt Q08708); experiment: selection ELISA of Example 1.2, scFv periplasmic extract on coated CD300c antigen

B1: SK12 (antibody, V domains shown)
VH: RVQLLESGGGLVQPGGSLRLSCAASGFTFSSYAMHWVRQAPGKGLEWVSAISGSGGDTYHADSVKGRFTISRDNSKNTLYLQMNSLRAEDTAVYYCTRGLSGFDYWGQGTLVTVSS
VL: EIVLTQSPGTLSLSPGERATLSCRASQSISSYLNWYQQKPGQAPRLLIYDASNRAPGIPDRFSGSGSGTDFTLTISRLEPEDFAVYYCQQSYSIPITFGQGTKVEIKF
In the case of B1, the binding [1] is reported as “binds” and the binding [2] is reported as “binds”.
